The target in assay [1] is Myc-tagged 14–3–3ζ (S58A) (human) (UniProt P63104). The experiment in a line: co-IP; anti-Myc immunoprecipitation from lysates of HEK293T cells transfected with pCMV–Myc–14–3–3ζ (WT) or (S58A), treated with DMSO or KB1541 (methods: 8 μM biotinylated KB1541 for 5 days); lysis buffer 50 mM Tris-HCl pH 7.4, 150 mM KCl, 0.05% NP-40; immunoblot for ATP synthase 5 alpha and beta.

The chains behind the UniProt entries cited, without tags or fusion partners. Where a name states a change or a piece, a line headed by the entry shows the natural chain unless it says otherwise.
UniProt P63104: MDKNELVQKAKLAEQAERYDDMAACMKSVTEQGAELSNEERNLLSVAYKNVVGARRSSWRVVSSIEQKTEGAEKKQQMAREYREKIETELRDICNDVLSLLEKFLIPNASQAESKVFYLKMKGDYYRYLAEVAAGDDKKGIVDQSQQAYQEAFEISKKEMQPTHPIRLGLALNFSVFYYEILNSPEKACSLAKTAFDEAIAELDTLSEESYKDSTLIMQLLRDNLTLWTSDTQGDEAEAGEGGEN

The target in assay [2] is Myc-tagged 14–3–3ζ (WT) (human) (UniProt P63104). The assay is described as above.

Results are given in words; binding and its absence hold for the method and conditions named. In cells and extracts the contact can be indirect. Some binding calls cover weakened binding; strength is not graded here.

Take “ATP synthase 5 beta (from UniProt P06576 48-529)”: the binding result in assay [1] and in assay [2] was “binds” in each case.

Values taken from article PMC8833107.
